Measured values taken from patent US20040091964A1, “Modified proteins, isolated novel peptides,and uses thereof” (priority 2003, published 2004).
“Also recorded” adds a separate entry of the source.

B1: modified MRP4 polypeptide: modified human MRP4 polypeptide lacking the T-K-F motif (terminal 3 amino acids deleted) (protein, listed as Homo sapiens)
chain: MLPVYQEVKPNPLQDANLCSRVFFWWLNPLFKIGHKRRLEEDDMYSVLPEDRSQHLGEELQGFWDKEVLRAENDAQKPSLTRAIIKCYWKSYLVLGIFTLIEESAKVIQPIFLGKIINYFENYDPMDSVALNTAYAYATVLTFCTLILAILHHLYFYHVQCAGMRLRVAMCHMIYRKALRLSNMAMGKTTTGQIVNLLSNDVNKFDQVTVFLHFLWAGPLQAIAVTALLWMEIGISCLAGMAVLIILLPLQSCFGKLFSSLRSKTATFTDARIRTMNEVITGIRIIKMYAWEKSFSNLITNLRKKEISKILRSSCLRGMNLASFFSASKIIVFVTFTTYVLLGSVITASRVFVAVTLYGAVRLTVTLFFPSAIERVSEAIVSIRRIQTFLLLDEISQRNRQLPSDGKKMVHVQDFTAFWDKASETPTLQGLSFTVRPGELLAVVGPVGAGKSSLLSAVLGELAPSHGLVSVHGRIAYVSQQPWVFSGTLRSNILFGKKYEKERYEKVIKACALKKDLQLLEDGDLTVIGDRGTTLSGGQKARVNLARAVYQDADIYLLDDPLSAVDAEVSRHLFELCICQILHEKITILVTHQLQYLKAASQILILKDGKMVQKGTYTEFLKSGIDFGSLLKKDNEESEQPPVPGTPTLRNRTFSESSVWSQQSSRPSLKDGALESQDTENVPVTLSEENRSEGKVGFQAYKNYFRAGAHWIVFIFLILLNTAAQVAYVLQDWWLSYWANKQSMLNVTVNGGGNVTEKLDLNWYLGIYSGLTVATVLFGIARSLLVFYVLVNSSQTLHNKMFESILKAPVLFFDRNPIGRILNRFSKDIGHLDDLLPLTFLDFIQTLLQVVGVVSVAVAVIPWIAIPLVPLGIIFIFLRRYFLETSRDVKRLESTTRSPVFSHLSSSLQGLWTIRAYKAEERCQELFDAHQDLHSEAWFLFLTTSRWFAVRLDAICAMFVIIVAFGSLILAKTLDAGQVGLALSYALTLMGMFQWCVRQSAEVENMMISVERVIEYTDLEKEAPWEYQKRPPPAWPHEGVIIFDNVNFMYSPGGPLVLKHLTALIKSQEKVGIVGRTGAGKSSLISALFRLSEPEGKIWIDKILTTEIGLHDLRKKMSIIPQEPVLFTGTMRKNLDPFNEHTDEELWNALQEVQLKETIEDLPGKMDTELAESGSNFSVGQRQLVCLARAILRKNQILIIDEATANVDPRTDELIQKKIREKFAHCTVLTIAHRLNTIIDSDKIMVLDSGRLKEYDEPYVLLQNKESLFYKMVQQLGKAEAAALTETAKQVYFKRNYPHIGHTDHMVTNTSNGQPSTLTIFE

System: L1210 cells
Assay: Localization of cMOAT polypeptides in L1210 cells (confocal microscopy of GFP fusions, immunofluorescence of untagged protein)
Assay type: cell-based, mouse
Experimental: The cMOAT-gfp and MRP1-gfp constructs supra (1 μg of DNA per transfection) were separately transfected into MDCK cells and L1210 cells using a UpofectAMINE transfection kit (Life Technologies, Inc.). Transfections of MDCK cells were carried out using Transwell plates (Costar, 24 mm×3 μm polycarbonate membrane) to enable cell polarization. Cells were imaged using a NikonTE300 inverted microscope linked to a Radiance 2000 Laser Scanning System for confocal microscopy and Lasersharp 2000 imaging software (Bio-Rad).
Detection and localization of untagged mutant cMOAT lacking the T-K-F motif (i.e. ΔcMOAT) was achieved by immunofluorescence, using the antibody M2 III6 (Kamiya Pty Ltd). 2×10^5 cells were washed with PBSF (phosphate-buffered saline supplemented with 2.5% fetal bovine serum). The cells were permeabilized using digitonin (5 μg/ml) and incubated at room temperature for 15 min. The cells were then washed three times with PBSF and then incubated with the primary antibody (2 μg) for 1 hr at room temperature before being washed twice with PBSF. The cells were incubated with fluorescein isothiocyanate-conjugated F(ab′)2 (Silenus, Hawthorn, Victoria, Australia) (1:80 dilution) for 30 min at room temperature. Finally, the cells were washed three times and resuspended in PBSF ready for immediate confocal microscopy.
(§1) The modified MDR3-gfp construct (1 μg of DNA per transfection) is transfected into MDCK cells and L1210 cells using a LipofectAMINE transfection kit (Life Technologies, Inc.). Transfections of MDCK cells are carried out using Transwell plates (Costar, 24 mm×3 μm polycarbonate membrane) to enable cell polarization. Cells are imaged using a NikonTE300 inverted microscope linked to a Radiance 2000. Laser Scanning System for confocal microscopy and Lasersharp 2000 imaging software (Bio-Rad).
as §1, with “MRP4-gfp” for “MDR3-gfp”, “μl” for “μg”, “2000” for “2000.”

[1] = without GFP tag, stably expressing L1210 cells, immunofluorescence with M2 III6 antibody
[2] = Examples 5 and 6, tag not stated at the place

| Molecule | localization in L1210 cells [1] | localization in L1210 cells [2] |
| --- | --- | --- |
| ΔcMOAT: modified human cMOAT polypeptide wherein the C-terminal T-K-F motif was deleted, without a GFP tag | detected in the cell membrane | – |
| cMOAT: native human canalicular multispecific organic anion transporter (MRP2) [reference compound] | detected intracellularly; also recorded: detected in intracellular vesicles surrounding the nucleus | – |
| modified MDR3 polypeptide: modified human MDR3 polypeptide lacking the T-K-F motif (terminal 4 amino acids deleted) | – | found in the plasma membrane |
| B1 | – | found in the plasma membrane |
